From the supplement of paper PMC8728848
This is one part of the list.

Tests used:
Assay in all cases: glycan array binding signal (z-score within array); higher = stronger binding
Conditions in all cases: glycan notation: IUPAC condensed, linker removed
[1] = molecular target: Gal(b1-4)GlcNAc(b1-2)Man(a1-3)[Gal(b1-4)GlcNAc(b1-2)Man(a1-6)]Man(b1-4)GlcNAc(b1-4)[Fuc(a1-6)]GlcNAc
How it was run: (§1)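 The Consortium for Functional Glycomics database supplied 3228 glycan arrays, of which those lacking an available protein sequence were dropped. The binding signal, a within-array Z-score, was averaged across arrays of the same protein sequence and across linkers. Negative scores can be read as non-binding.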

[2] = molecular target: Gal(b1-4)GlcNAc(b1-2)Man(a1-3)[Gal(b1-4)GlcNAc(b1-2)Man(a1-6)][Gal(b1-4)GlcNAc(b1-4)]Man(b1-4)GlcNAc(b1-4)[Fuc(a1-6)]GlcNAc
How it was run: as §1

[3] = molecular target: Gal(b1-4)GlcNAc(b1-2)Man(a1-3)[Gal(b1-4)GlcNAc(b1-2)Man(a1-6)][GlcNAc(b1-4)]Man(b1-4)GlcNAc(b1-4)[Fuc(a1-6)]GlcNAc
How it was run: as §1

[4] = molecular target: Gal(b1-4)GlcNAc(b1-2)Man(a1-3)[GlcNAc(b1-2)Man(a1-6)]Man(b1-4)GlcNAc(b1-4)GlcNAc
How it was run: as §1

[5] = molecular target: Gal(b1-4)GlcNAc(b1-2)Man(a1-3)[GlcNAc(b1-4)][Gal(b1-4)GlcNAc(b1-2)Man(a1-6)]Man(b1-4)GlcNAc(b1-4)GlcNAc
How it was run: as §1

[6] = molecular target: Gal(b1-4)GlcNAc(b1-2)Man(a1-3)[Man(a1-6)]Man(b1-4)GlcNAc(b1-4)GlcNAc
How it was run: as §1

[7] = molecular target: Gal(b1-4)GlcNAc(b1-2)Man(a1-6)Man(b1-4)GlcNAc(b1-4)GlcNAc
How it was run: as §1

[8] = molecular target: Gal(b1-4)GlcNAc(b1-2)Man(a1-6)[GlcNAc(b1-2)Man(a1-3)]Man(b1-4)GlcNAc(b1-4)GlcNAc
How it was run: as §1

[9] = molecular target: Gal(b1-4)GlcNAc(b1-2)Man(a1-6)[Man(a1-3)]Man(b1-4)GlcNAc(b1-4)GlcNAc
How it was run: as §1

[10] = molecular target: Gal(b1-4)GlcNAc(b1-2)[Gal(b1-4)GlcNAc(b1-4)]Man(a1-3)[Gal(b1-4)GlcNAc(b1-2)Man(a1-6)]Man(b1-4)GlcNAc(b1-4)GlcNAc
How it was run: as §1

[11] = molecular target: Gal(b1-4)GlcNAc(b1-2)[Gal(b1-4)GlcNAc(b1-4)]Man(a1-3)[Gal(b1-4)GlcNAc(b1-2)[Gal(b1-4)GlcNAc(b1-6)]Man(a1-6)]Man(b1-4)GlcNAc(b1-4)GlcNAc
How it was run: as §1

[12] = molecular target: Gal(b1-4)GlcNAc(b1-2)[Gal(b1-4)GlcNAc(b1-4)]Man(a1-3)[GlcNAc(b1-4)][Gal(b1-4)GlcNAc(b1-2)Man(a1-6)]Man(b1-4)GlcNAc(b1-4)GlcNAc
How it was run: as §1

[13] = molecular target: Gal(b1-4)GlcNAc(b1-2)[Gal(b1-4)GlcNAc(b1-4)]Man(a1-3)[GlcNAc(b1-4)][Gal(b1-4)GlcNAc(b1-2)[Gal(b1-4)GlcNAc(b1-6)]Man(a1-6)]Man(b1-4)GlcNAc(b1-4)GlcNAc
How it was run: as §1

[14] = molecular target: Gal(b1-4)GlcNAc(b1-2)[Gal(b1-4)GlcNAc(b1-6)]Man(a1-6)[Gal(b1-4)GlcNAc(b1-2)Man(a1-3)]Man(b1-4)GlcNAc(b1-4)GlcNAc
How it was run: as §1

[15] = molecular target: Gal(b1-4)GlcNAc(b1-2)[Gal(b1-4)GlcNAc(b1-6)]Man(a1-6)[Gal(b1-4)GlcNAc(b1-2)Man(a1-3)]Man(b1-4)GlcNAc(b1-4)[Fuc(a1-6)]GlcNAc
How it was run: as §1

[16] = molecular target: Gal(b1-4)GlcNAc(b1-2)[Gal(b1-4)GlcNAc(b1-6)]Man(a1-6)[GlcNAc(b1-4)][Gal(b1-4)GlcNAc(b1-2)Man(a1-3)]Man(b1-4)GlcNAc(b1-4)GlcNAc
How it was run: as §1

[17] = molecular target: Gal(b1-4)GlcNAc(b1-2)[Gal(b1-4)GlcNAc(b1-6)]Man(a1-6)[GlcNAc(b1-4)][Gal(b1-4)GlcNAc(b1-2)[Gal(b1-4)GlcNAc(b1-4)]Man(a1-3)]Man(b1-4)GlcNAc(b1-4)[Fuc(a1-6)]GlcNAc
How it was run: as §1

[18] = molecular target: Gal(b1-4)GlcNAc(b1-3)Gal(b1-3)GalNAc
How it was run: as §1

[19] = molecular target: Gal(b1-4)GlcNAc(b1-3)Gal(b1-3)GlcNAc
How it was run: as §1

B1: SP15308F-bth-333-19-333 (Bacteroides thetaiotaomicron) (protein)
chain: SCNNEWESEQYVQMVSFKAPVNAQGVTPIYIRYKPEGKVTYQLPLIVSGSTMNSKDLNVHVGLDLDTLDVLNVEHFGSRKELFFKPLENKYYEFPETVQIPAGECTSLLPIDFALKDLDQVDKWVLPLAIQSNDPSHNYQANPRKFYRRAMLRISPFNDYSGQYSATAYKVYFKGNEKEAIVPEYHTSYVIDDKTIFFYAGLIDIDRLDRKYYKIKFEFTEEKIDLQTRKLKISSDNEDINLVVKGQPSYTVEEEMDATRPYLKHIYVTINNLEYEFTDYTSVPGYPLEYVVKGSLTMERKINTQIPDEDQAIEW
glycan array binding signal (z-score) [1]: 1.81
glycan array binding signal (z-score) [2]: -0.791
glycan array binding signal (z-score) [3]: -0.07
glycan array binding signal (z-score) [4]: -1.22
glycan array binding signal (z-score) [5]: -0.682
glycan array binding signal (z-score) [6]: -0.719
glycan array binding signal (z-score) [7]: -1.02
glycan array binding signal (z-score) [8]: -0.963
glycan array binding signal (z-score) [9]: -0.531
glycan array binding signal (z-score) [10]: 0.402
glycan array binding signal (z-score) [11]: -0.113
glycan array binding signal (z-score) [12]: 0.22
glycan array binding signal (z-score) [13]: 0.006
glycan array binding signal (z-score) [14]: -0.431
glycan array binding signal (z-score) [15]: -0.313
glycan array binding signal (z-score) [16]: -1.21
glycan array binding signal (z-score) [17]: 0.062
glycan array binding signal (z-score) [18]: 0.095
glycan array binding signal (z-score) [19]: -0.026
